Results taken from the supplement of paper PMC10849652.
Some of the results follow.

Protein sequences, listed by entry. Tags and fused reporters are not part of them. Lines headed by an entry give the natural chain unless they say otherwise; changes in a name come on top.
UniProt Q9Y5W7: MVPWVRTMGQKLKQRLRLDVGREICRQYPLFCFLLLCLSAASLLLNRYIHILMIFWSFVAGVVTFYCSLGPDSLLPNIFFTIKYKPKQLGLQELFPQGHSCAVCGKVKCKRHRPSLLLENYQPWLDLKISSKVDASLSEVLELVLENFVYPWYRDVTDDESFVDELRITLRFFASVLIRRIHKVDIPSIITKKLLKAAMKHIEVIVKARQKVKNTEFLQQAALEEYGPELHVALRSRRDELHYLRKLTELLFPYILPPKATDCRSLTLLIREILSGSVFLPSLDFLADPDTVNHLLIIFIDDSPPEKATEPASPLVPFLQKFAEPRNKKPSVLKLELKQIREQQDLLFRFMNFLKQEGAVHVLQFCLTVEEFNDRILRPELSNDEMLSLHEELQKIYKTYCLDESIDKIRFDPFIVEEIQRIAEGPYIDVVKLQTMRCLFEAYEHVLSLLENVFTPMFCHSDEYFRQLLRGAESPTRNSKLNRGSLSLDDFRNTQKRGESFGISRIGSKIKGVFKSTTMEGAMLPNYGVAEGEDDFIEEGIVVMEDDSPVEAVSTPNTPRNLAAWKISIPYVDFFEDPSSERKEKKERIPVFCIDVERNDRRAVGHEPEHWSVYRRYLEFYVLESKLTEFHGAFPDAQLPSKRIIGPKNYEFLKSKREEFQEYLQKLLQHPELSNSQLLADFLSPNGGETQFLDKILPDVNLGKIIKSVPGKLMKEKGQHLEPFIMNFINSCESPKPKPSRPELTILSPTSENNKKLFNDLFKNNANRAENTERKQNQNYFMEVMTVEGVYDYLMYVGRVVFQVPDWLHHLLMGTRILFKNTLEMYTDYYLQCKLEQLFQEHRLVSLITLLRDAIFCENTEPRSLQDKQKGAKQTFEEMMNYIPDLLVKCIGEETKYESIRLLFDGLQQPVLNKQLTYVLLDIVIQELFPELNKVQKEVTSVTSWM
UniProt Q9UMY4: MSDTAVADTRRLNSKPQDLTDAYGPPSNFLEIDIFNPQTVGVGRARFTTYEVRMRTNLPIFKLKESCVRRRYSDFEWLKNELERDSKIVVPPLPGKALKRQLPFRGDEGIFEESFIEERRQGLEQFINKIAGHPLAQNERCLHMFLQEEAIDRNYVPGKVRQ
UniProt P62318, whole entry, looked up: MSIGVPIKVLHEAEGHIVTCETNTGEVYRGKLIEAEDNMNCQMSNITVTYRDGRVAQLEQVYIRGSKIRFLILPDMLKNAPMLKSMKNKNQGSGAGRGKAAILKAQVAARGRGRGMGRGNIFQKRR
UniProt Q15796, whole entry, looked up: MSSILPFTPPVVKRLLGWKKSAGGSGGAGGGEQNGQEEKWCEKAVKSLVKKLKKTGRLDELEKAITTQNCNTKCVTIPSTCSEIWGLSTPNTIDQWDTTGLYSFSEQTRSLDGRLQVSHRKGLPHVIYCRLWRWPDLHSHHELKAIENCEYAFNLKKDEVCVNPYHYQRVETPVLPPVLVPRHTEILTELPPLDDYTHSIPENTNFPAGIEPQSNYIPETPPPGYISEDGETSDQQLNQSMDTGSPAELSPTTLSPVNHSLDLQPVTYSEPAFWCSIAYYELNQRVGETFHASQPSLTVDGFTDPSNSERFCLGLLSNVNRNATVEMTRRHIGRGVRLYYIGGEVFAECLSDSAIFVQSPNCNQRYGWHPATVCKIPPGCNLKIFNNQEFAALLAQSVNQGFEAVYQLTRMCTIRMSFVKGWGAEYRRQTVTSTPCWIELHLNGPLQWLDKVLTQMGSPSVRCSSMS
UniProt O00193: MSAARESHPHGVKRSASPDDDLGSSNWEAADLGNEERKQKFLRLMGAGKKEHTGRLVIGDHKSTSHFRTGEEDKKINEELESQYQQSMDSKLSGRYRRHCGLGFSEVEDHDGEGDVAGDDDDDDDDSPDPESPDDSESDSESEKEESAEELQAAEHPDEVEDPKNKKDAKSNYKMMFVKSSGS
UniProt P09661: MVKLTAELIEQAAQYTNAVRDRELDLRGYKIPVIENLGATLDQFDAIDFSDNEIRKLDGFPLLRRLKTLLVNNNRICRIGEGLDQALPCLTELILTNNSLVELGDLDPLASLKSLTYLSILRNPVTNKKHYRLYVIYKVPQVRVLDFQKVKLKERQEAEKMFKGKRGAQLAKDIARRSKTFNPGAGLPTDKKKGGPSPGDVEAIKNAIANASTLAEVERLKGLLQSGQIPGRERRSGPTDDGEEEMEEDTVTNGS
UniProt Q7KZF4: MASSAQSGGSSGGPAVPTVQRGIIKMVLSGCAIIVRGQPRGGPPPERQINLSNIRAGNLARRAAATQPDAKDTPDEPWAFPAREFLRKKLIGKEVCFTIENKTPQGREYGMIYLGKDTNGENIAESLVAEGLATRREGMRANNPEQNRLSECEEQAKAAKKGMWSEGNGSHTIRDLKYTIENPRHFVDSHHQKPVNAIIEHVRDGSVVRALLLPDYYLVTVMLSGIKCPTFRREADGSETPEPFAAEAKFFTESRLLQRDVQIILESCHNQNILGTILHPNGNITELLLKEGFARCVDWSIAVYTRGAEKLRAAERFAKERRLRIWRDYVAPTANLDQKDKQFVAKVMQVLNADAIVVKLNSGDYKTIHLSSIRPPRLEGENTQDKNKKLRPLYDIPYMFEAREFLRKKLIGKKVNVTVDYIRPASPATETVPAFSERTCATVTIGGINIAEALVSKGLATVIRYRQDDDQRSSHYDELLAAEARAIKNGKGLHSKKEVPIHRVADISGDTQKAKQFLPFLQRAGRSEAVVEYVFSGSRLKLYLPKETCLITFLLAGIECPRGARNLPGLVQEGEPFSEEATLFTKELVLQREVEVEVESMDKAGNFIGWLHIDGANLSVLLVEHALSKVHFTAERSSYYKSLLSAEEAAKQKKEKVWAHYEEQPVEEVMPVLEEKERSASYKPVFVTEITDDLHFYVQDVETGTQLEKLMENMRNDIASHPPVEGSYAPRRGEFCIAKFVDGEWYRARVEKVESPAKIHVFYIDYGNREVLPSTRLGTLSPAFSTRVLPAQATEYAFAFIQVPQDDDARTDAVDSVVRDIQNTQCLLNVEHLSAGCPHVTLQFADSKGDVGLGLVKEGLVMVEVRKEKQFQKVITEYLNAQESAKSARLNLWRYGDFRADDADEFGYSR
UniProt Q00796: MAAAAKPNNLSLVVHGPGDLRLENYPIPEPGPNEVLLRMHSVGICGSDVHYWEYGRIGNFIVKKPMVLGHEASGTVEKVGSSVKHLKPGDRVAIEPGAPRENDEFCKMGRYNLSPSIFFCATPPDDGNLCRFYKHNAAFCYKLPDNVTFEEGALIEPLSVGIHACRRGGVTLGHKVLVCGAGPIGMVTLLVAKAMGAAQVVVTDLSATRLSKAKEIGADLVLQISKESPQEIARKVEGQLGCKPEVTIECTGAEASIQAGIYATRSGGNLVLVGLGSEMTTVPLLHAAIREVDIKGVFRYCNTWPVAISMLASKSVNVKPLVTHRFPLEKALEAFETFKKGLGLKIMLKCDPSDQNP
UniProt P04179: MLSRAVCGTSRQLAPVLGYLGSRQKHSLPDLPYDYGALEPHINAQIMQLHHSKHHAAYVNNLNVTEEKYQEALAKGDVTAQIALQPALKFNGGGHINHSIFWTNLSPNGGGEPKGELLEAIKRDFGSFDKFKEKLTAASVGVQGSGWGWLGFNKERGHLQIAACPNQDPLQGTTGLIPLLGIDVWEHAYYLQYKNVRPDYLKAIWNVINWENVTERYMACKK
UniProt Q96H20: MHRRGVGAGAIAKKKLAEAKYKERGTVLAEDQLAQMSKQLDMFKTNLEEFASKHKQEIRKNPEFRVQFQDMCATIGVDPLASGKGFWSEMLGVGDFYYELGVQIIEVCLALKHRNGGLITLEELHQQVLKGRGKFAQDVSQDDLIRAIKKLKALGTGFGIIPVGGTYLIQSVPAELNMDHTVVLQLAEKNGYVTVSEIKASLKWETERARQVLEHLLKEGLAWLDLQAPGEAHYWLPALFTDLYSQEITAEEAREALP
UniProt P09234, whole entry, looked up: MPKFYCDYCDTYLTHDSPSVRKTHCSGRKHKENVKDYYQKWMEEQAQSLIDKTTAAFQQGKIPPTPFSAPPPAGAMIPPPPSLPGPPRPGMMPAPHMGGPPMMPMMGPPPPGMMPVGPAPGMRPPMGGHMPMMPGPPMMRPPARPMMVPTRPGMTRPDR
UniProt Q92922, whole entry, looked up: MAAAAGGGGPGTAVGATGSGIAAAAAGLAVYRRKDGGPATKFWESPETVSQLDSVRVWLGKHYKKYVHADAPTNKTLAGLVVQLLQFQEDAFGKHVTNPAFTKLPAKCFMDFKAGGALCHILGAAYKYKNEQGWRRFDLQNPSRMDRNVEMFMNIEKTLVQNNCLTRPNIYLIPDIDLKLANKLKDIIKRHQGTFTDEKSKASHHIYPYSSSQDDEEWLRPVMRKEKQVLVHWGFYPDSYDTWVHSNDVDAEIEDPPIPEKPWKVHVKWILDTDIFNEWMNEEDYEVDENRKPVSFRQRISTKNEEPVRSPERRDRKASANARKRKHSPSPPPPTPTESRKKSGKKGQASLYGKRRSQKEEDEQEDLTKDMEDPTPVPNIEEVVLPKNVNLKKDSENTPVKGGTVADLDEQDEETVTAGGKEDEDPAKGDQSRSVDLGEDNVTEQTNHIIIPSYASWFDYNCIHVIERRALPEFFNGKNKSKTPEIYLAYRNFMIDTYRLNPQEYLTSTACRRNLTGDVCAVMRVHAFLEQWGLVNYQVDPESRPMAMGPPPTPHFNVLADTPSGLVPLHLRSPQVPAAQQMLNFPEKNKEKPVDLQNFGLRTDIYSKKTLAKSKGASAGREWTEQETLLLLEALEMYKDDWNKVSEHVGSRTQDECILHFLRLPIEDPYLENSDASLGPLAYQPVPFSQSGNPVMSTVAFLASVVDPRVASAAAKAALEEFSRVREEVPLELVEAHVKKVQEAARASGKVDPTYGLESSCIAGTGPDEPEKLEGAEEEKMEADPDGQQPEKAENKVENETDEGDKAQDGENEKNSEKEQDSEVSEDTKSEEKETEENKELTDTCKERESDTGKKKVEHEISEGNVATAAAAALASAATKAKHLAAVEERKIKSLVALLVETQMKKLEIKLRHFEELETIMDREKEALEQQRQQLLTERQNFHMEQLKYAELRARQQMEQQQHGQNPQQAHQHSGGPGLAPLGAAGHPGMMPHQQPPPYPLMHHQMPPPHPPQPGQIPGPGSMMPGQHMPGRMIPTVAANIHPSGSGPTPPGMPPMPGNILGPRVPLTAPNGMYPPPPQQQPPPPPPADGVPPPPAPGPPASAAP
UniProt Q9BX66: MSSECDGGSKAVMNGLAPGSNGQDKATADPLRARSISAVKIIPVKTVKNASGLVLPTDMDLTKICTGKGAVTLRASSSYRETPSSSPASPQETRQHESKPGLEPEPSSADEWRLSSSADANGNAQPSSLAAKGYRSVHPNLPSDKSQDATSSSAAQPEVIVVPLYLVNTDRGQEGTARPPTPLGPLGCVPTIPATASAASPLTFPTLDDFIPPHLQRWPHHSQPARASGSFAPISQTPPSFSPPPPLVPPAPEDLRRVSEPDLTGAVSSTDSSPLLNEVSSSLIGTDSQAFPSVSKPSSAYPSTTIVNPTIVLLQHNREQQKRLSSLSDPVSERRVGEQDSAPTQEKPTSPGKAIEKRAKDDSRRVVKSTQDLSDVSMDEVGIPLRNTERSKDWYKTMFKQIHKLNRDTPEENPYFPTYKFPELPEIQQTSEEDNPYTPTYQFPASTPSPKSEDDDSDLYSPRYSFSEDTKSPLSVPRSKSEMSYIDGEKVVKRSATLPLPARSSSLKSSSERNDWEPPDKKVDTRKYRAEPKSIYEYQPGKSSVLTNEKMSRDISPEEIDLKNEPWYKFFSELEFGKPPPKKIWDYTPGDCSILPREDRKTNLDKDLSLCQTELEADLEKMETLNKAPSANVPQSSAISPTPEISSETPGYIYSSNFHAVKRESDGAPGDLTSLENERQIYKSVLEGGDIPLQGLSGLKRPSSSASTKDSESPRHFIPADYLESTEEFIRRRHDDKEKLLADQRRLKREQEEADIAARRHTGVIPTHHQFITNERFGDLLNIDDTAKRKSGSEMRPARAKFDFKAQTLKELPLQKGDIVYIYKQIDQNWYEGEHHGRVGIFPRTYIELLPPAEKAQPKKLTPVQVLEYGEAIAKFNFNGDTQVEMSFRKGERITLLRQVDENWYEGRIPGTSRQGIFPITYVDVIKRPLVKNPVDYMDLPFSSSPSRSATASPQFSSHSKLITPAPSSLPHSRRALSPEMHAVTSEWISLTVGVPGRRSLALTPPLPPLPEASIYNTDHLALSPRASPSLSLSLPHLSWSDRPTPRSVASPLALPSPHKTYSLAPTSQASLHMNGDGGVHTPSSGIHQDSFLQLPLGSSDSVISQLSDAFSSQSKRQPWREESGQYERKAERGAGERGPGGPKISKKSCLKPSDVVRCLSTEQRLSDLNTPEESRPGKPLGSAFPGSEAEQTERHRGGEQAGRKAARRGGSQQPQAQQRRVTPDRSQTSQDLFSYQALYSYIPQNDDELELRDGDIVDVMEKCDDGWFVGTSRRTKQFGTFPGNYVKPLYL

How the values were obtained:
Test in all cases: log2 fold change, soluble protein after heating vs DMSO (PISA); higher = thermal stabilisation; K562 cells, 10 uM, 30 min; active = over 0.2 and 3.5 SD of the protein, either way, in both replicates (recomputed)
[1] = compound: CC1=C(C=C(C=C1)NC(=O)C2=CC(=CC=C2)C(C)(C)C#N)NC3=CC4=C(C=C3)N=CN(C4=O)C
How it was run: (§1)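 Thermal stability values are relative to control samples and come from duplicates. They are expressed as log2 fold changes. For measurement, K562 cells (2×10^6 cells/mL) received 10 μM compound for 30 min, and aliquots were heated for 3 min over 48°C-58°C, pooled, and extracted at 4°C in PBS with 0.5% NP-40. Soluble protein, the supernatant after 21,000xg for 90 min, was quantified by TMTpro 16plex LC-MS/MS with equalised channel sums.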

[2] = compound: CC1=C(C=C(C=C1)NC(=O)C2=CC(=CC=C2)N(C)C)NC(=O)C3=CC=C(C=C3)O
How it was run: as §1

[3] = compound: CC1=CC=C(C=C1)SC2=C3C=C(SC3=CN=C2)C(=O)N
How it was run: as §1

[4] = compound: CC1=NC(=CC=C1)C2=C(N=C(N2)C(C)(C)C)C3=CC4=NC=CN=C4C=C3
How it was run: as §1

[5] = compound: CCCCN(Cc1ccc(C(=O)NO)cc1)C(=O)Nc1ccccc1 [Nexturastat A]
How it was run: as §1

[6] = compound: CCCS(=O)(=O)Nc1ccc(F)c(C(=O)c2c[nH]c3ncc(-c4ccc(Cl)cc4)cc23)c1F [vemurafenib]
How it was run: as §1

[7] = compound: CCCS(=O)(=O)Nc1ccc(F)c(C(=O)c2c[nH]c3ncc(Cl)cc23)c1F
How it was run: as §1

[8] = compound: CCCc1cc(C)[nH]c(=O)c1CNC(=O)c1cc(-c2ccnc(N3CCN(C)CC3)c2)cc2c1cnn2C(C)C
How it was run: as §1

[9] = compound: CCN(CC)Cc1ccc2cc(COC(=O)Nc3ccc(C(=O)NO)cc3)ccc2c1 [givinostat]
How it was run: as §1

[10] = compound: CCN(CCCOc1ccc2c(Nc3cc(CC(=O)Nc4cccc(F)c4)[nH]n3)ncnc2c1)CCOP(=O)(O)O [barasertib]
How it was run: as §1

[11] = compound: CC[C@@H]1C(=O)N(C)c2cnc(Nc3ccc(C(=O)NC4CCN(C)CC4)cc3OC)nc2N1C1CCCC1
How it was run: as §1

[12] = compound: CC[C@@H]1C(=O)N(C)c2cnc(Nc3ccc(C(=O)N[C@H]4CC[C@H](N5CCN(CC6CC6)CC5)CC4)cc3OC)nc2N1C(C)C [volasertib]
How it was run: as §1

[13] = compound: CC[C@H](C)N1C=C(C2=C(C=C(C=C21)C3=CN=C(C=C3)N4CCNCC4)C(=O)NCC5=C(C=C(NC5=O)C)C)C
How it was run: as §1

[14] = compound: CC[C@H](C)[C@@H](C(=O)N[C@@H]([C@@H](C)O)C(=O)N[C@@H](CC(C)C)C(=O)[C@]1(CO1)C)NC(=O)[C@H]([C@@H](C)CC)N(C)C(=O)C [epoxomicin]
How it was run: as §1

[15] = compound: CCn1c(C(=O)N(C2CC2)C2CC2)cc2c3c(ncn3C)c(Nc3cc(C)n(C)n3)nc21
How it was run: as §1

[16] = compound: CN(C)CC(=O)Nc1ccc2[nH]c(=O)c3ccccc3c2c1
How it was run: as §1

[17] = compound: CN(CCOC1=CC=C(C=C1)C[C@H]2C(=O)NC(=O)S2)C3=CC=CC=N3 (racemic) [rosiglitazone]
How it was run: as §1

[18] = compound: CN1C2=C(C3=C1C(=O)N(N=C3)CC4=CC(=CC=C4)N)SC(=C2)S(=O)C
How it was run: as §1

[19] = compound: CCn1cc(-c2ccnc3[nH]c(-c4cccc(CN(C)C)c4)cc23)c(-c2ccc(NC(=O)N(C)C)cc2)n1
How it was run: as §1

[20] = compound: CN1CCC(CNc2ccc3ncc(-c4cccc(OC(F)(F)F)c4)n3n2)CC1
How it was run: as §1

Row | Target | log2 fold change [1] | log2 fold change [2] | log2 fold change [3] | log2 fold change [4] | log2 fold change [5] | log2 fold change [6] | log2 fold change [7] | log2 fold change [8] | log2 fold change [9] | log2 fold change [10] | log2 fold change [11] | log2 fold change [12] | log2 fold change [13] | log2 fold change [14] | log2 fold change [15] | log2 fold change [16] | log2 fold change [17] | log2 fold change [18] | log2 fold change [19] | log2 fold change [20]
1 | SNX14 (UniProt Q9Y5W7) | inactive: -0.012 | inactive: -0.073 | inactive: -0.016 | inactive: -0.224 | inactive: 0.048 | inactive: 0.019 | inactive: 0.023 | inactive: 0.055 | inactive: -0.035 | inactive: 0.235 | inactive: -0.01 | inactive: 0.007 | inactive: 0.054 | inactive: 0.023 | inactive: 0.045 | inactive: -0.018 | inactive: -0.068 | inactive: 0.214 |  | 
2 | SP100 isoform 4 (UniProt P23497) | inactive: 0.02 | inactive: -0.004 | inactive: 0.072 | inactive: -0.008 | inactive: -0.119 | inactive: -0.019 | inactive: 0.159 | inactive: 0 | inactive: -0.005 | inactive: 0.003 | inactive: -0.021 | inactive: -0.065 | inactive: 0.012 | inactive: -0.006 |  | inactive: -0.045 |  | inactive: -0.059 | inactive: 0.056 | inactive: -0.064
3 | SNX12 isoform 1 (UniProt Q9UMY4) | inactive: -0.021 | inactive: -0.006 | inactive: 0.032 | inactive: 0.024 | inactive: -0.082 | inactive: 0.054 | inactive: 0.059 | inactive: 0.008 | inactive: 0.004 | inactive: 0.062 | inactive: -0.124 | active: -0.252 | inactive: 0.069 | inactive: 0.028 |  | inactive: -0.012 |  | inactive: 0.045 | inactive: 0.043 | active: -0.275
4 | SNRPD3 (UniProt P62318) | inactive: -0.03 | inactive: 0.031 | inactive: -0.048 | inactive: -0.079 | inactive: -0.023 | inactive: -0.015 | inactive: -0.102 | inactive: -0.126 | inactive: 0 | inactive: -0.039 | inactive: 0.194 | inactive: 0.134 | inactive: -0.058 | inactive: -0.037 |  | inactive: -0.07 |  | inactive: 0.001 | inactive: 0.058 | inactive: 0.198
5 | SNRNP200 (UniProt O75643) | inactive: 0.034 | inactive: -0.009 | inactive: -0.066 | inactive: -0.036 | inactive: 0.04 | inactive: -0.011 | inactive: 0 | inactive: -0.014 | inactive: -0.017 | inactive: -0.016 | inactive: 0.078 | inactive: 0.066 | inactive: -0.018 | inactive: -0.027 | inactive: -0.008 | inactive: -0.025 | inactive: 0.001 | inactive: 0.037 | inactive: -0.003 | inactive: 0.16
6 | SNX3 (UniProt O60493) | inactive: -0.013 | inactive: -0.064 | inactive: 0.073 | inactive: -0.004 | inactive: 0.037 | inactive: 0.046 | inactive: 0.122 | inactive: 0.02 | inactive: 0.09 | inactive: 0.045 | inactive: -0.071 | inactive: -0.147 | inactive: 0.107 | inactive: -0.033 |  | inactive: 0.077 |  | inactive: 0.116 | inactive: 0.057 | inactive: -0.319
7 | SMAD2 (UniProt Q15796) | inactive: 0.036 | inactive: -0.034 | inactive: 0.01 | inactive: 0.052 | inactive: -0.382 | inactive: -0.016 | inactive: 0.04 | inactive: -0.027 | inactive: 0.047 | inactive: 0.047 | inactive: -0.067 | active: -0.347 | inactive: 0.065 | inactive: 0.11 |  | inactive: 0.014 |  | inactive: -0.158 | inactive: -0.014 | inactive: -0.018
8 | SMAP (UniProt O00193) | inactive: -0.018 | inactive: -0.002 | inactive: -0.03 | inactive: 0.062 | inactive: -0.059 | inactive: -0.006 | inactive: 0.001 | inactive: -0.107 | inactive: -0.02 | inactive: 0.008 | inactive: -0.024 | inactive: 0.023 | inactive: -0.043 | inactive: 0.06 |  | inactive: -0.011 |  | inactive: -0.088 | inactive: 0.014 | inactive: -0.045
9 | SNRPA1 (UniProt P09661) | inactive: 0.071 | inactive: -0.002 | inactive: -0.006 | inactive: 0.004 | inactive: -0.018 | inactive: -0.001 | inactive: -0.024 | inactive: -0.004 | inactive: -0.044 | inactive: -0.048 | inactive: 0.095 | inactive: 0.187 | inactive: -0.052 | inactive: -0.049 | inactive: 0.034 | inactive: -0.058 | inactive: -0.015 | inactive: -0.013 | inactive: 0.099 | inactive: 0.097
10 | SND1 (UniProt Q7KZF4) | inactive: 0.055 | inactive: 0.129 | inactive: -0.025 | inactive: -0.181 | inactive: 0.625 | inactive: -0.024 | inactive: -0.003 | inactive: 0.22 | inactive: 0.202 | inactive: -0.032 | inactive: 0.19 | inactive: -0.042 | inactive: 0.083 | inactive: -0.396 | inactive: 0.005 | inactive: 0.001 | inactive: -0.088 | inactive: 0.495 | inactive: 0.29 | inactive: 0.128
11 | SMC2 (UniProt O95347) | inactive: -0.007 | inactive: -0.042 | inactive: -0.018 | inactive: 0.003 | inactive: 0.029 | inactive: 0.05 | inactive: 0.055 | inactive: 0.04 | inactive: 0.018 | inactive: 0.018 | inactive: -0.057 | inactive: -0.183 | inactive: 0.064 | inactive: 0.022 | inactive: -0.023 | inactive: 0.003 | inactive: 0.021 | inactive: -0.008 | inactive: -0.038 | inactive: -0.053
12 | SORD (UniProt Q00796) | inactive: -0.032 | inactive: 0.001 | inactive: 0.022 | inactive: -0.004 | inactive: -0.035 | inactive: 0.009 | inactive: 0.004 | inactive: -0.024 | inactive: -0.121 | inactive: 0.007 | inactive: 0.047 | inactive: 0.049 | inactive: -0.03 | inactive: 0.017 | inactive: 0.022 | inactive: -0.02 | inactive: 0.014 | inactive: -0.072 | inactive: -0.015 | inactive: -0.019
13 | SOD2 (UniProt P04179) | inactive: -0.043 | inactive: 0.034 | inactive: -0.018 | inactive: 0.002 | inactive: 0.005 | inactive: 0.047 | inactive: -0.01 | inactive: -0.016 | inactive: -0.036 | inactive: -0.013 | inactive: 0.035 | inactive: 0.126 | inactive: -0.001 | inactive: -0.075 | inactive: -0.004 | inactive: -0.039 | inactive: -0.02 | inactive: -0.014 | inactive: 0.034 | inactive: 0.147
14 | SNF8 (UniProt Q96H20) | inactive: 0.017 | inactive: -0.034 | inactive: -0.031 | inactive: 0.075 | inactive: -0.031 | inactive: 0.001 | inactive: -0.03 | inactive: -0.029 | inactive: 0.004 | inactive: 0.026 | inactive: 0.028 | inactive: -0.029 | inactive: -0.02 | inactive: 0.004 | inactive: 0.008 | inactive: -0.021 | inactive: -0.023 | inactive: -0.076 | inactive: 0.008 | inactive: -0.042
15 | SNRPC (UniProt P09234) | inactive: -0.008 | inactive: -0.037 | inactive: -0.047 | inactive: 0.004 | inactive: 0.063 | inactive: 0 | inactive: -0.069 | inactive: 0 | inactive: -0.002 | inactive: -0.012 | inactive: 0.079 | inactive: 0.062 | inactive: -0.09 | inactive: 0.023 | inactive: 0.044 | inactive: -0.067 | inactive: -0.037 | inactive: 0.03 | inactive: 0.042 | inactive: 0.11
16 | SMARCC1 (UniProt Q92922) | inactive: -0.098 | inactive: -0.06 | inactive: -0.038 | inactive: -0.014 | inactive: 0.112 | inactive: 0.028 | inactive: 0.051 | inactive: 0.007 | inactive: 0.299 | inactive: 0.081 | inactive: -0.111 | inactive: -0.148 | inactive: -0.12 | inactive: 0.03 | inactive: -0.124 | inactive: 0.098 | inactive: 0.062 | inactive: 0.164 | inactive: 0.001 | inactive: 0.089
17 | SORBS1 isoform 12 (UniProt Q9BX66) | inactive: 0.014 | inactive: -0.003 | inactive: -0.019 | inactive: 0.033 | inactive: -0.049 | inactive: -0.003 | inactive: 0.011 | inactive: -0.088 | inactive: -0.072 | inactive: 0.033 | inactive: -0.032 | inactive: -0.103 | inactive: -0.035 | inactive: -0.009 | inactive: -0.006 | inactive: -0.023 | inactive: 0.039 | inactive: -0.046 | inactive: 0.013 | inactive: 0.069

Record cards (already shown). Values in the order: log2 fold change [1]	log2 fold change [2]	log2 fold change [3]	log2 fold change [4]	log2 fold change [5]	log2 fold change [6]	log2 fold change [7]	log2 fold change [8]	log2 fold change [9]	log2 fold change [10]	log2 fold change [11]	log2 fold change [12]	log2 fold change [13]	log2 fold change [14]	log2 fold change [15]	log2 fold change [16]	log2 fold change [17]	log2 fold change [18]	log2 fold change [19]	log2 fold change [20]
SNRNP200 (UniProt O75643) reads inactive: 0.034	inactive: -0.009	inactive: -0.066	inactive: -0.036	inactive: 0.04	inactive: -0.011	inactive: 0	inactive: -0.014	inactive: -0.017	inactive: -0.016	inactive: 0.078	inactive: 0.066	inactive: -0.018	inactive: -0.027	inactive: -0.008	inactive: -0.025	inactive: 0.001	inactive: 0.037	inactive: -0.003	inactive: 0.16
SNF8 (UniProt Q96H20) reads inactive: 0.017	inactive: -0.034	inactive: -0.031	inactive: 0.075	inactive: -0.031	inactive: 0.001	inactive: -0.03	inactive: -0.029	inactive: 0.004	inactive: 0.026	inactive: 0.028	inactive: -0.029	inactive: -0.02	inactive: 0.004	inactive: 0.008	inactive: -0.021	inactive: -0.023	inactive: -0.076	inactive: 0.008	inactive: -0.042
